From patent publication US20040254139
For at least one entry, the source does not settle the construct or the ends of the probe.

Sequences of proteins named here, by UniProt entry; tags and fusion partners are left off. Residues count along the entry.
UniProt P01375, 77-233: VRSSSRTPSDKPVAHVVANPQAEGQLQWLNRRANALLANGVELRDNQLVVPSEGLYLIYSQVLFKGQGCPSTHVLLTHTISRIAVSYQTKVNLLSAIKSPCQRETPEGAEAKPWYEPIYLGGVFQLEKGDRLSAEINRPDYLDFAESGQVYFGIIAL

Target: TNF-alpha (tumor necrosis factor alpha) (Homo sapiens) (UniProt P01375)
Experiment: ELONA
Conditions: 37 C; label: 5'-biotin; single-stranded DNA

“GCACACTAAGTTTCTACACGTCTCGTCGCCCTCTTTGTGC [DNA aptamer 4]”: binds.
“CACTGTTTGACGTTTCGGATTAAGGAGTCCGCTCGCACCC [DNA aptamer 14]”: binds.
“CGCGCGTAAATCTTCTTCTGTTACCCTCTCTTCATGTCGC [DNA aptamer 1]”: binds.
“CGATCTACGTGGTGACTCATACGTGTCGATGTGCCTTTCC [DNA aptamer 3]”: binds.
“TGGCGAGTATACTCACAAACCTCTCACAGGAACCTGGGGC [DNA aptamer 10]”: binds.
“CCGACGTACTCGGTAGACAAGTCCCCTGAAGTGTGACGCC [DNA aptamer 17]”: binds.
“TCCCATCAAAACCAAATTTCGGGTCTGCTCTCTCTCTGCC [DNA aptamer 15]”: binds.
“CGCTGGAGGACGATGTTAATTAGACCGCAACTACATTGCA [DNA aptamer 2]”: binds.
“GCGGCCGATAAGGTCTTTCCAAGCGAACGAATTGAACCGC [DNA aptamer 18]”: binds.
“ATGGCGCAGTCGGCGACAATCACTTTGGTTACTATTGGCC [DNA aptamer 5]”: binds.
“CCCCGCCATGTGCTTAGTGCAATAACGTTCTCACCGCCCC [DNA aptamer 13]”: binds.
“CGGTGTCCCGGCACTTTGATCGTCGACCTGTTGTATTGCC [DNA aptamer 6]”: binds.
“CCACGTCTACACTTACCCCTGTGACAGCTATACTCATCAC [DNA aptamer 12]”: binds.
“GGCGGGGTCTCTAAAGTGTGTTATCATCTGCTTGTTGGCC [DNA aptamer 7]”: binds.
“TGCACACCGGTGATTTAGCCTGGCGTGCTTCACCTTCACC [DNA aptamer 11]”: binds.
“CACTGTAATCAGAGGCTTTTTTACTCTCGCTGCATTCCGG [DNA aptamer 8]”: binds.
“GCCCAGCGTCCGACACTAACTAGTCGCCAAACAATCAGCC [DNA aptamer 9]”: binds.
“TGGGGATGCGGTCTGCCTAACAACAGGGCTTCACTTACCC [DNA aptamer 16]”: binds.
